From article doi:10.1101/2022.06.09.495453
Negatives hold for the conditions tested. At least one verdict rests on a figure or table, not on a statement of the authors.

The chains behind the UniProt entries cited, without tags or fusion partners.
UniProt Q9UI95, whole entry: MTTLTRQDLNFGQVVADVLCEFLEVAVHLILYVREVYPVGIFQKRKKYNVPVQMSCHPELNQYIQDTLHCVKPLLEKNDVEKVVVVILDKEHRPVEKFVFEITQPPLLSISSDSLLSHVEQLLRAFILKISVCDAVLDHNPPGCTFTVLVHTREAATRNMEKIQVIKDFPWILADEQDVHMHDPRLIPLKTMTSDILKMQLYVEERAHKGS

Molecular target: REV7 (human) (UniProt Q9UI95)
Assay: fluorescence anisotropy
Conditions: 20 uM protein; residues 1-211

Sequence: AGTGCCAGTGCC [ssDNA non-telomeric 12-mer]
- binding result: no binding
